Data: PubChem BioAssay AID2685 (National Center for Advancing Translational Sciences (NCATS), 2010)
Some of the results follow. The main result of the screen is listed elsewhere. These columns were measured beside it and carry no call. Compounds called inactive in the main read-out are mostly missing here. Potencies come from curve fits of mixed quality, noted in brackets.

Test: qHTS Assay for Lipid Storage Modulators in Drosophila S3 Cells;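 for cell number change: cells counted by Cell Tracker Red CMTPX staining in the red channel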
Settings: BODIPY lipid droplet fluorescence, 18-24 h; for cell number change: measured here: cell count max response, cells fed with added oleic acid
Summary of the method: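 Laser-scanning cytometry quantifies lipid droplet accumulation (500–530 nm total intensity; droplet/cell object ratio) in oleic acid-fed (400 uM added) Drosophila S3 cells treated with a concentration series. 20 uM Triacsin C defined 100% inhibition.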

[1] = measured here: cell number channel AC50, cells fed with added oleic acid
[2] = measured here: lipid fluorescence (Fed channel) AC50, cells fed with added oleic acid

| SMILES | cell number change [%] | AC50 [1] | AC50 [2] |
| --- | --- | --- | --- |
| COc1ccc(C(=O)NC(C(=O)OCC(=O)Nc2sccc2C(N)=O)C(C)C)cc1 (configuration not stated) | 9.27 | 0.0116 µM [rising, full curve, poor fit] | 1.64 µM [rising, full curve, poor fit] |
| O=C(Nc1ccc(Cl)c([N+](=O)[O-])c1)c1ccncc1 | 9.33 | 4.61 µM [falling, single point] | – |
| CCOc1ccc(CCNC(=O)COC(=O)/C=C/c2ccc(OCC#N)c(OC)c2)cc1OCC | -72.4 | 1.84 µM [falling, full curve] | 1.46 µM [falling, full curve] |
| CCC1=NN2C(=N)/C(=C/c3cc(C)n(-c4ccccc4)c3C)C(=O)N=C2S1 | 38.8 | 0.651 µM [rising, partial curve, poor fit] | 29.1 µM [rising, single point] |
| Fc1ccc(NC(=S)Nc2ccc3nccnc3c2)cc1 | 130 | 29.1 µM [rising, single point] | – |
| Cc1cc(NC(=O)NC2CCCN2S(=O)(=O)c2ccc(Cl)cc2)no1 (configuration not stated) | 6.98 | – | 0.116 µM [rising, full curve] |
| O=c1c2ccccc2nc(SCc2nc(-c3ccccc3)no2)n1-c1ccc(F)cc1 | – | 0.259 µM [rising, full curve, poor fit] | 0.461 µM [rising, full curve] |
| CC(NC(=S)Nc1cccc(C(F)(F)F)c1)C(C)(C)C (configuration not stated) | -8.62 | – | 23.1 µM [falling, single point] |
| Cc1ccccc1NC(=O)c1ccc(-c2ccc(Cl)cc2Cl)o1 | -7.79 | 2.31 µM [rising, partial curve] | 2.06 µM [rising, partial curve] |
| CC1CC(C)(C)NC(=S)N1CC(=O)NCc1ccc(F)cc1 (configuration not stated) | – | – | 0.731 µM [rising, full curve, poor fit] |
| Cc1cc(N2C(=O)C(O)=C(C(=O)c3cc4ccccc4o3)C2c2ccc(Br)cc2)no1 (configuration not stated) | 10.9 | – | 18.4 µM [rising, single point] |
| COc1ccc(C(=O)NCC(=O)NC2=NCCS2)cc1 | -38.2 | 10.3 µM [falling, partial curve] | 23.1 µM [falling, partial curve] |
| Cc1cc(C(F)(F)F)nn1CCCNC(=O)c1cnccn1 | 12.7 | – | 2.06 µM [rising, full curve] |
| O=C(NN1C(=O)/C(=C/c2cccc(O)c2)SC1=S)c1ccccc1O | -14.5 | – | 20.6 µM [rising, partial curve] |

An excerpt of these results, with bars between the fields.
SMILES | cell number change [%] | AC50 [1] | AC50 [2]
Cc1cc(C(F)(F)F)nn1CCCNC(=O)c1cnccn1 | 12.7 | – | 2.06 µM [rising, full curve]
O=C(NN1C(=O)/C(=C/c2cccc(O)c2)SC1=S)c1ccccc1O | -14.5 | – | 20.6 µM [rising, partial curve]
